Measurements published in the supplement of paper PMC12823440, “Inhibitors supercharge kinase turnover through native proteolytic circuits” (Nature, 2025).
Where a name gives a salt, the structure may show the parent alone. The list shows a part of the results. Hit calls seldom repeat between salt and free forms of one compound.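 Kinases, fused to nanoluciferase, were expressed in K562 cells; luminescence was measured every 4 h from 2 to 18 h as percent of control (DMSO = 100%, positive control = 0%). A time point is decreased if signal falls significantly (2 sigma). Hits were called by the authors by a rule that is not shown; the count of time points alone does not decide it.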

Amino acid sequences for entries named in this document (tags omitted). A change or cut given only in a name is not applied to a line headed by its entry.
UniProt Q9UM73: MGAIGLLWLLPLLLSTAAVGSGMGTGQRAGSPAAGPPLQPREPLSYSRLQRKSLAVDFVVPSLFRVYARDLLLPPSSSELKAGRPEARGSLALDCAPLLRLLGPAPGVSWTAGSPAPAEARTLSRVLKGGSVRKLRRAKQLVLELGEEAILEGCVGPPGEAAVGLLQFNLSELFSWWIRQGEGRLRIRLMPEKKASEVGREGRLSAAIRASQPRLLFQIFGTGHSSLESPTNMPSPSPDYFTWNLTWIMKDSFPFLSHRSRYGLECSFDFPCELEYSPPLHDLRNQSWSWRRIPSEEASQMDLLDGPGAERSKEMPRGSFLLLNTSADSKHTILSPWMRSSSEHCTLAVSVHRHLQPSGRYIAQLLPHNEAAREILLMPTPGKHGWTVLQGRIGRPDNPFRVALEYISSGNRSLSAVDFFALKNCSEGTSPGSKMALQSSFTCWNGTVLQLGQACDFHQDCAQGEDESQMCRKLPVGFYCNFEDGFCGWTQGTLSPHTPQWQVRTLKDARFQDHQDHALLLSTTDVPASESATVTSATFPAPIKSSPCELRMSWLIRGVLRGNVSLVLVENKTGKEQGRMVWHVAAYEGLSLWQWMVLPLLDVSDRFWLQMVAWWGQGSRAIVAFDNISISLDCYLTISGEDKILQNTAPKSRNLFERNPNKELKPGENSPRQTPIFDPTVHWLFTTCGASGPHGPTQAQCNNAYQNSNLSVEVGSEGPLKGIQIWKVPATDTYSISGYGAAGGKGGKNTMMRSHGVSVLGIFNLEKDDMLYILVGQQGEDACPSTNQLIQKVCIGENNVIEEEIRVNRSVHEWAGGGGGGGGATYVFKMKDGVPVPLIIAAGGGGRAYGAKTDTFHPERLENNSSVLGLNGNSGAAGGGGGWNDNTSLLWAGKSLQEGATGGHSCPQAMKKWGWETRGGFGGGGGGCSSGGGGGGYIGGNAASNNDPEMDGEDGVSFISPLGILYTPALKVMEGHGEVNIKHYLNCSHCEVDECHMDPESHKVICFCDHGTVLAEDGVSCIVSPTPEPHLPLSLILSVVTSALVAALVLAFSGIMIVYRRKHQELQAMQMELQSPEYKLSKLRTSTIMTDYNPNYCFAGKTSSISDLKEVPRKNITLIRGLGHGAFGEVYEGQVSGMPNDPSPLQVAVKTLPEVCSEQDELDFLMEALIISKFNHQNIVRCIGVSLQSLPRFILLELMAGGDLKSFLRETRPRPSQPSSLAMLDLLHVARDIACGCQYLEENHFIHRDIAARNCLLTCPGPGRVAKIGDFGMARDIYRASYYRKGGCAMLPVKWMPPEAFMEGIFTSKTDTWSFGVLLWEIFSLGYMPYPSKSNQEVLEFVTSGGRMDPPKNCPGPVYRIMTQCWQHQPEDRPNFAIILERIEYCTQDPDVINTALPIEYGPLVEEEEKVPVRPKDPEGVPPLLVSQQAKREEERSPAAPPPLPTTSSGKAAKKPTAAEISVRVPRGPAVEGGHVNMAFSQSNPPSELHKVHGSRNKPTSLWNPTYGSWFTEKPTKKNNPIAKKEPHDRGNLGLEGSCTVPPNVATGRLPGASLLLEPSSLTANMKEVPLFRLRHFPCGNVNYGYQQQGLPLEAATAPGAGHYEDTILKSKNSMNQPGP
UniProt P10398: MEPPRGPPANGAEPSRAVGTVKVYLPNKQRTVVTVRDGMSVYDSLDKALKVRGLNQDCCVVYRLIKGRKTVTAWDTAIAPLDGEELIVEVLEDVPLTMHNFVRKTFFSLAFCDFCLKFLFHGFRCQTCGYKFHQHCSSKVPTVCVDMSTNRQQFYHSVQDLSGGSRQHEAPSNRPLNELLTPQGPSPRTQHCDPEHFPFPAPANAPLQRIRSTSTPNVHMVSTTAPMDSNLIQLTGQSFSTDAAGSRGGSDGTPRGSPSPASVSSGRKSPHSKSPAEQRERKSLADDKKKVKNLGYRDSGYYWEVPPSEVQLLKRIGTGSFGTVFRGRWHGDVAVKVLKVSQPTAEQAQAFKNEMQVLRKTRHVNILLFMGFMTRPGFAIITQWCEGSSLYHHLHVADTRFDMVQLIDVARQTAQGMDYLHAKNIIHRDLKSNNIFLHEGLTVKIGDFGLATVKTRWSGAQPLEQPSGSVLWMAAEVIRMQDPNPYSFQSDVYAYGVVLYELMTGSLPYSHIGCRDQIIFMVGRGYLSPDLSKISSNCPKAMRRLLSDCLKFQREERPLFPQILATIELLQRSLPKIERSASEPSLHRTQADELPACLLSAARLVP
UniProt O14965: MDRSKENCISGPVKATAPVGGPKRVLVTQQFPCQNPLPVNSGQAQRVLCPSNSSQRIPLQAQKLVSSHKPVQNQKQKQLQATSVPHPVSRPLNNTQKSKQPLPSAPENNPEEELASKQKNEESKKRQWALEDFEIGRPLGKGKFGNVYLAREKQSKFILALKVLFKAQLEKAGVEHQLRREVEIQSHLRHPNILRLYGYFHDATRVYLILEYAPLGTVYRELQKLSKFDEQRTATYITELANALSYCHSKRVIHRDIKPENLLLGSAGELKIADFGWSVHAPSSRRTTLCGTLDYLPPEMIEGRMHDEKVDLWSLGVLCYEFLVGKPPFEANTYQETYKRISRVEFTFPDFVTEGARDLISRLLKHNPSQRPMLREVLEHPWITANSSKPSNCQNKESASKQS
UniProt P51451: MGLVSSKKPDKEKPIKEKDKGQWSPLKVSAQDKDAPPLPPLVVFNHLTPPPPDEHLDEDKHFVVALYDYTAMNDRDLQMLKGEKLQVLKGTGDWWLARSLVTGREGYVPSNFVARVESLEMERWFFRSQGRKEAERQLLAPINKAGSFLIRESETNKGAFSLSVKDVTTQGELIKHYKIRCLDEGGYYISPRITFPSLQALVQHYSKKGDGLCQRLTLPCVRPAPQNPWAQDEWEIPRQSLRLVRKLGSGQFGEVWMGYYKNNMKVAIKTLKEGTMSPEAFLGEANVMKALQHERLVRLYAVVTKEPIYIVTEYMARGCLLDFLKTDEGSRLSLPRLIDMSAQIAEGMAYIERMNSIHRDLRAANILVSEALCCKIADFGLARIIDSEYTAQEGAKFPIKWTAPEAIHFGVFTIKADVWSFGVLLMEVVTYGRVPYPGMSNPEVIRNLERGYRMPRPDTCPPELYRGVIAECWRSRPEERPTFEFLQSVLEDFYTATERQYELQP
UniProt P15056, whole entry, looked up: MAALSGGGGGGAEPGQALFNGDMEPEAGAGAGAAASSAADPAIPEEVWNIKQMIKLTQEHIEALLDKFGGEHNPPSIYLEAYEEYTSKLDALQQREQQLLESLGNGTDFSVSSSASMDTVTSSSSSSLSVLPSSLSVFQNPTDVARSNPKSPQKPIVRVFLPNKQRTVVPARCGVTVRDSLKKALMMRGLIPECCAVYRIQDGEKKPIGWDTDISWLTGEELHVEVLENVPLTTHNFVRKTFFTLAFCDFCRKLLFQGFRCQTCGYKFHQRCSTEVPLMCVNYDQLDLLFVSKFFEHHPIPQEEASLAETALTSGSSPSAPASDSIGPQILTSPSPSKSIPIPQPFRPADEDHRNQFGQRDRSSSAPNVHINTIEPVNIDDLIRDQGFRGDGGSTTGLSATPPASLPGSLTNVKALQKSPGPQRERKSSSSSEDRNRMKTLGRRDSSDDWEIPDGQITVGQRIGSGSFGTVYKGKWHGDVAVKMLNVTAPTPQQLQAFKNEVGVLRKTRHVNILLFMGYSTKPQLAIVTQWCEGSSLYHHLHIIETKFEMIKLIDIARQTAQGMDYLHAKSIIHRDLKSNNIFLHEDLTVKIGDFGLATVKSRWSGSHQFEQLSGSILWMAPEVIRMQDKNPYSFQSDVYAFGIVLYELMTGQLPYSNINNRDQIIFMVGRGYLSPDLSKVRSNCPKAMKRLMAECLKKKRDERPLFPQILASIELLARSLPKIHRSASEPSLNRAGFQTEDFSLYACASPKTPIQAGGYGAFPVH
UniProt Q06187: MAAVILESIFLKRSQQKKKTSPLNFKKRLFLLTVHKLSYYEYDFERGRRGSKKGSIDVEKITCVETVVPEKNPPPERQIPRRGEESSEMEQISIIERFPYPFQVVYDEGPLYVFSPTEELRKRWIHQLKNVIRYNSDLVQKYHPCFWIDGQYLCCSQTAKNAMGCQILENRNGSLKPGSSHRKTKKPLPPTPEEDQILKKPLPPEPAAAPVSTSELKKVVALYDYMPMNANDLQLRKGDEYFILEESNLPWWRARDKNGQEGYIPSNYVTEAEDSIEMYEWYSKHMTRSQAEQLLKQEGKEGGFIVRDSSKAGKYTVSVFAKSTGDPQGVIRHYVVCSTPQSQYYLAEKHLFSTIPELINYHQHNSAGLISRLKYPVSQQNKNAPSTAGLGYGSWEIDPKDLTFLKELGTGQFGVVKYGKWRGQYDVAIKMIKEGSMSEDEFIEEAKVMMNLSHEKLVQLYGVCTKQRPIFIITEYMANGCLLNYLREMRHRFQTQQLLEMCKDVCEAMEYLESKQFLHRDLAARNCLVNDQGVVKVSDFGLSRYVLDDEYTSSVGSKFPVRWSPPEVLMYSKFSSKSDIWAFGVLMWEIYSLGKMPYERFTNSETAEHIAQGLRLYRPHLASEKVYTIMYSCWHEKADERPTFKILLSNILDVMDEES
UniProt Q13555: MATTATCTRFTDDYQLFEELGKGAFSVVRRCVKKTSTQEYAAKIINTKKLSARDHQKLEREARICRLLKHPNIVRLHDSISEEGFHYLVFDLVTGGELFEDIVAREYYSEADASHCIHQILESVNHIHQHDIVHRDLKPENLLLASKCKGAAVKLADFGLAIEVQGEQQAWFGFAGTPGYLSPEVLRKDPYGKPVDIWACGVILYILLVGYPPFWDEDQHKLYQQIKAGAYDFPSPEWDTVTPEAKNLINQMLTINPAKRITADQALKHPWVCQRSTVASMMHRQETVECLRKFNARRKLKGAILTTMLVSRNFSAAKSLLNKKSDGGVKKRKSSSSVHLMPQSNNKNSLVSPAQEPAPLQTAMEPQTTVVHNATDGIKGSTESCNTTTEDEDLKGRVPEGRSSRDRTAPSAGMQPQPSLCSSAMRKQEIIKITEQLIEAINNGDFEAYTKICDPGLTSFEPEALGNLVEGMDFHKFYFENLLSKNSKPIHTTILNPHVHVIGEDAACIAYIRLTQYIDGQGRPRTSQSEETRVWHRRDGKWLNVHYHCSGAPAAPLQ
UniProt Q15131: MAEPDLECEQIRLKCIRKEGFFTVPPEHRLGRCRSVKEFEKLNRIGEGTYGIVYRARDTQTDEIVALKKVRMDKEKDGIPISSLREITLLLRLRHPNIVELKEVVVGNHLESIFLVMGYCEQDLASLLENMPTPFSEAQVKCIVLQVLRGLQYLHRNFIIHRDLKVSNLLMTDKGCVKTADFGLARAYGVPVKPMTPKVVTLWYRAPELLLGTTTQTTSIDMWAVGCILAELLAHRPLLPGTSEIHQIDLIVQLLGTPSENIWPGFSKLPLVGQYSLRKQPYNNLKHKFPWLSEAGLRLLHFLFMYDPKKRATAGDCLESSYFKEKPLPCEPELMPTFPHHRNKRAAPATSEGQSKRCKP
UniProt P11802: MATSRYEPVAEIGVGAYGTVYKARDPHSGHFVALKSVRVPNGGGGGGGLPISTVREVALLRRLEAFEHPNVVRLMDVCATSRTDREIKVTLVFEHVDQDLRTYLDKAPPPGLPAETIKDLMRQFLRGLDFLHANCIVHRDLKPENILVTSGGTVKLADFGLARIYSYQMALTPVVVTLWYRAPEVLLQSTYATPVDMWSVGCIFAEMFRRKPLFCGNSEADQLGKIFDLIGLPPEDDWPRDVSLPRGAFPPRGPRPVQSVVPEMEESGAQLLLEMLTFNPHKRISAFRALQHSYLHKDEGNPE
UniProt Q00535, whole entry, looked up: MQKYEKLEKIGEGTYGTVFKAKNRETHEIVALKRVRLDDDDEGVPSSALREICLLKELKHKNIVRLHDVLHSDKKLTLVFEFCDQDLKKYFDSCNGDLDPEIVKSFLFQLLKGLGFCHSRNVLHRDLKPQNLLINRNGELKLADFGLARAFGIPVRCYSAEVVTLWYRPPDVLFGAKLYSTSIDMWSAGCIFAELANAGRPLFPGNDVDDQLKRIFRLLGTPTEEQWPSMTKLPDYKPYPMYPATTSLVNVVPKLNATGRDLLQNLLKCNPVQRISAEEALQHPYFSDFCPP
UniProt Q00534, whole entry: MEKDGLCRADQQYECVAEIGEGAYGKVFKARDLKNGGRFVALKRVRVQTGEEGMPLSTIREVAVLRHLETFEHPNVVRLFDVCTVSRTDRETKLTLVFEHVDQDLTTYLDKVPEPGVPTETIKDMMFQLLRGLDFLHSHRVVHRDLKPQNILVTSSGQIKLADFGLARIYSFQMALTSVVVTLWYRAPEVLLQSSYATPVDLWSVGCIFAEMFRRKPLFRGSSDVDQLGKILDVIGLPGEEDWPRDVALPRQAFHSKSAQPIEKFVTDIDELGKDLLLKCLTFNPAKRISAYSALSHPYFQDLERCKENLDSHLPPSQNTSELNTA

Columns and labels:
Assay in all cases: kinase-Nluc reporter destabilization hit call (1 = scored as downregulated) (binary); higher = compound decreases kinase abundance
Details in all cases: K562; 2-18 h
[1] = biological target: ABL1 (UniProt P00519)
[2] = biological target: AKT1 (UniProt P31749)
[3] = biological target: ALK (UniProt Q9UM73)
[4] = biological target: ARAF (UniProt P10398)
[5] = biological target: AURKA (UniProt O14965)
[6] = biological target: AURKB (UniProt Q96GD4)
[7] = biological target: AURKC (UniProt Q9UQB9)
[8] = biological target: BLK (UniProt P51451)
[9] = biological target: BMX (UniProt P51813)
[10] = biological target: BRAF (UniProt P15056)
[11] = tested on: BRAF_V600E
[12] = biological target: BTK (UniProt Q06187)
[13] = biological target: CAMK2A (UniProt Q9UQM7)
[14] = biological target: CAMK2G (UniProt Q13555)
[15] = biological target: CDK10 (UniProt Q15131)
[16] = biological target: CDK2 (UniProt P24941)
[17] = biological target: CDK3 (UniProt Q00526)
[18] = biological target: CDK4 (UniProt P11802)
[19] = biological target: CDK5 (UniProt Q00535)
[20] = biological target: CDK6 (UniProt Q00534)

Measured: kinase-Nluc reporter destabilization hit call

CNC(=O)c1c(F)cccc1Nc1nc(Nc2cc3c(cc2OC)CCN3C(=O)CN(C)C)nc2[nH]ccc12 (10 µM)
active: [8] 1
inactive: [1] 0 | [2] 0 | [3] 0 | [4] 0 | [5] 0 | [6] 0 | [7] 0 | [9] 0 | [10] 0 | [11] 0 | [12] 0 | [13] 0 | [14] 0 | [15] 0 | [16] 0 | [17] 0 | [18] 0 | [19] 0 | [20] 0

CS(=O)(=O)Nc1cc(-c2ccc3ncnc(Nc4ccc(F)c(Cl)c4)c3c2)cnc1Cl (2.5 µM)
inactive: [1] 0 | [2] 0 | [3] 0 | [4] 0 | [5] 0 | [6] 0 | [7] 0 | [8] 0 | [9] 0 | [10] 0 | [11] 0 | [12] 0 | [13] 0 | [14] 0 | [15] 0 | [16] 0 | [17] 0 | [18] 0 | [19] 0 | [20] 0

COc1cc(OC2CCN(C)CC2)ccc1Nc1ncc2c(n1)n(C1CCCC1)c(=O)n2C (10 µM)
inactive: [1] 0 | [2] 0 | [3] 0 | [4] 0 | [5] 0 | [6] 0 | [7] 0 | [8] 0 | [9] 0 | [10] 0 | [11] 0 | [12] 0 | [13] 0 | [14] 0 | [15] 0 | [16] 0 | [17] 0 | [18] 0 | [19] 0 | [20] 0

O=C1Nc2ccc(C(=O)c3ccco3)cc2C1=Cc1cc(Cl)c(O)c(Cl)c1 (2.5 µM)
inactive: [1] 0 | [2] 0 | [3] 0 | [4] 0 | [5] 0 | [6] 0 | [7] 0 | [8] 0 | [9] 0 | [10] 0 | [11] 0 | [12] 0 | [13] 0 | [14] 0 | [15] 0 | [16] 0 | [17] 0 | [18] 0 | [19] 0 | [20] 0

O=c1[nH]c(=O)n([C@@H]2O[C@H](CO)[C@@H](O)[C@@H]2O)cc1/C=C/Br [Sorivudine] (10 µM)
inactive: [1] 0 | [2] 0 | [3] 0 | [4] 0 | [5] 0 | [6] 0 | [7] 0 | [8] 0 | [9] 0 | [10] 0 | [11] 0 | [12] 0 | [13] 0 | [14] 0 | [15] 0 | [16] 0 | [17] 0 | [18] 0 | [19] 0 | [20] 0

COc1cc2ncnc(Nc3ccc(Cl)cc3F)c2cc1OC (10 µM)
inactive: [1] 0 | [2] 0 | [3] 0 | [4] 0 | [5] 0 | [6] 0 | [7] 0 | [8] 0 | [9] 0 | [10] 0 | [11] 0 | [12] 0 | [13] 0 | [14] 0 | [15] 0 | [16] 0 | [17] 0 | [18] 0 | [19] 0 | [20] 0

Cc1ccccc1-n1c([C@H](C)Nc2nc(N)nc3nc[nH]c23)nc2cccc(C)c2c1=O [CAL-130 (Hydrochloride)] (10 µM)
inactive: [1] 0 | [2] 0 | [3] 0 | [4] 0 | [5] 0 | [6] 0 | [7] 0 | [8] 0 | [9] 0 | [10] 0 | [11] 0 | [12] 0 | [13] 0 | [14] 0 | [15] 0 | [16] 0 | [17] 0 | [18] 0 | [19] 0 | [20] 0

CCS(=O)(=O)Nc1ccc2[nH]c(O)c(C(=Nc3ccc(CN4CCCCC4)cc3)c3ccccc3)c2c1 [Hesperadin] (2.5 µM)
inactive: [1] 0 | [2] 0 | [3] 0 | [4] 0 | [5] 0 | [6] 0 | [7] 0 | [8] 0 | [9] 0 | [10] 0 | [11] 0 | [12] 0 | [13] 0 | [14] 0 | [15] 0 | [16] 0 | [17] 0 | [18] 0 | [19] 0 | [20] 0

CN1CCN(c2cnc3c(C4CCN(C(=O)c5ccc(OC(F)(F)F)cc5N)CC4)ncnc3c2)CC1 (10 µM)
inactive: [1] 0 | [2] 0 | [3] 0 | [4] 0 | [5] 0 | [6] 0 | [7] 0 | [8] 0 | [9] 0 | [10] 0 | [11] 0 | [12] 0 | [13] 0 | [14] 0 | [15] 0 | [16] 0 | [17] 0 | [18] 0 | [19] 0 | [20] 0
